Source: PubChem BioAssay AID1508597 (Cure First, 2020)
Aim: 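Survival screen with siRNA in ovarian cancer cells derived from patients, with or without rucaparib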 (primary screen). Cells: human ovarian carcinoma lines grown from tumours: OCI-P5x (papillary serous) and OCI-C5x (clear cell). Reagent: siRNA pool against human genes, 1.25 pmol siRNA per well. Time to read-out: 72 h or 96 h, depending on the cell culture. Challenge: rucaparib 20 µM (about IC30) or vehicle, present until read-out. Rucaparib or vehicle: Rucaparib. Cell line: OCI-C5x (clear cell). Detection: 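ATP luminescence measured at 72 or 96 h according to the culture, then normalised and expressed as percent viability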. Direction: viability, normalised: higher = more viable cells remaining. Hit rule: 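Active when normalised viability falls below 80 percent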. Calls: active = viability under 80%; inactive = viability 80% or more.
This is an unselected part of the about 2,100 reagents, under one of the conditions tested. 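Calls flag viability under 80% in either arm, not effects specific to rucaparib; the reference for percent is not stated.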 A reagent listed more than once was tested more than once; the source does not tell the runs apart. No sequences are given here. Not given: the 100% reference.

The first 4 records, to show the layout:
no.	target	technical replicate	viability, normalised (%)	outcome
1	PCDHB14 (protocadherin beta 14)	1	33.6	active
2	PCDHB14 (protocadherin beta 14)	2	36.5	active
3	PCDHB14 (protocadherin beta 14)	3	29.3	active
4	KDR (kinase insert domain receptor)	1	53.4	active

The listing, repeating the preview:
no.	target	technical replicate	viability, normalised (%)	outcome
1	PCDHB14 (protocadherin beta 14)	1	33.6	active
2	PCDHB14 (protocadherin beta 14)	2	36.5	active
3	PCDHB14 (protocadherin beta 14)	3	29.3	active
4	KDR (kinase insert domain receptor)	1	53.4	active
5	KDR (kinase insert domain receptor)	2	67.2	active
6	KDR (kinase insert domain receptor)	3	37.1	active
7	PRPS1 (phosphoribosyl pyrophosphate synthetase 1)	1	41.9	active
8	PRPS1 (phosphoribosyl pyrophosphate synthetase 1)	2	50.6	active
9	PRPS1 (phosphoribosyl pyrophosphate synthetase 1)	3	39.6	active
10	BMP7 (bone morphogenetic protein 7)	1	72	active
11	BMP7 (bone morphogenetic protein 7)	2	67.1	active
12	BMP7 (bone morphogenetic protein 7)	3	49.7	active
13	HK3 (hexokinase 3)	1	76.9	active
14	HK3 (hexokinase 3)	2	81.6	inactive
15	HK3 (hexokinase 3)	3	56.9	active
16	PARP8 (poly(ADP-ribose) polymerase family member 8)	1	39	active
17	PARP8 (poly(ADP-ribose) polymerase family member 8)	2	32.6	active
18	PARP8 (poly(ADP-ribose) polymerase family member 8)	3	34.9	active
19	SOX1 (SRY-box transcription factor 1)	1	37.8	active
20	SOX1 (SRY-box transcription factor 1)	2	45.8	active
21	SOX1 (SRY-box transcription factor 1)	3	42.7	active
22	POLD4 (DNA polymerase delta 4, accessory subunit)	1	40.4	active
23	POLD4 (DNA polymerase delta 4, accessory subunit)	2	56.9	active
24	POLD4 (DNA polymerase delta 4, accessory subunit)	3	42.6	active
25	TBK1 (TANK binding kinase 1)	1	66	active
26	TBK1 (TANK binding kinase 1)	2	70.6	active
27	TBK1 (TANK binding kinase 1)	3	49.5	active
28	TARBP2 (TARBP2 subunit of RISC loading complex)	1	45.3	active
29	TARBP2 (TARBP2 subunit of RISC loading complex)	2	54.7	active
30	TARBP2 (TARBP2 subunit of RISC loading complex)	3	38.3	active
31	AIRE (autoimmune regulator)	1	51.7	active
32	AIRE (autoimmune regulator)	2	50	active
33	AIRE (autoimmune regulator)	3	45.3	active
34	AURKB (aurora kinase B)	1	62.6	active
35	AURKB (aurora kinase B)	1	51.8	active
36	AURKB (aurora kinase B)	2	47.4	active
37	AURKB (aurora kinase B)	2	61.5	active
38	AURKB (aurora kinase B)	3	39.1	active
39	AURKB (aurora kinase B)	3	59.6	active
